Data reported in article PMC11091212.
No constants are given. Whether binding was seen depends on the method and setting.

How the values were obtained:
MFAP4_(C34S) (human) [1] = molecular target: MFAP4_(C34S) (human) (UniProt P55083); experiment: dynamic light scattering; denaturing and reducing: 1% SDS in TBS with 50 mM DTT; both purified
MFAP4_(C34S) (human) [2] = molecular target: MFAP4_(C34S) (human) (UniProt P55083); experiment: SPR; self-interaction without Ca2+: immobilised and soluble protein treated with 5 mM EDTA or EGTA and dialysed against TBS; running buffer TBS; analyte 5-100 µg/mL; both purified
MFAP4_(C34S) (human) [3] = molecular target: MFAP4_(C34S) (human) (UniProt P55083); experiment: dynamic light scattering; denaturing: 1% SDS in TBS, without DTT; both purified
MFAP4_(C34S) (human) [4] = molecular target: MFAP4_(C34S) (human) (UniProt P55083); experiment: SDS-PAGE; non-reducing, 10% gel, Coomassie stain; disulphide-linked dimer; both purified
MFAP4_(C34S) (human) [5] = molecular target: MFAP4_(C34S) (human) (UniProt P55083); experiment: condition: only SDS gel under reducing conditions (50 mM DTT); SDS-PAGE; reducing (50 mM DTT), 10% gel, Coomassie stain; both purified

- binding (MFAP4_(C34S) (human) [3]): no binding (condition: with 1% SDS)
- binding (MFAP4_(C34S) (human) [5]): no binding
B1: MFAP4_(C34S) (protein, UniProt P55083 22-255)
chain: VSGIRGDALERFSLQQPLDCDDIYAQGYQSDGVYLIYPSGPSVPVPVFCDMTTEGGKWTVFQKRFNGSVSFFRGWNDYKLGFGRADGEYWLGLQNMHLLTLKQKYELRVDLEDFENNTAYAKYADFSISPNAVSAEEDGYTLFVAGFEDGGAGDSLSYHSGQKFSTFDRDQDLFVQNCAALSSGAFWFRSCHFANLNGFYLGGSHLSYANGINWAQWKGFYYSLKRTEMKIRRA
- binding (MFAP4_(C34S) (human) [1]): no binding (condition: with 50 mM DTT and 1% SDS)
- binding (MFAP4_(C34S) (human) [2]): no binding (condition: Ca2+-depleted form)
- binding (MFAP4_(C34S) (human) [4]): no binding (condition: SDS gel, non-reducing)
